# Results of single-concentration screens

Chains of the proteins cited; added tags and fusions are not shown.
UniProt I6X8D2, whole entry: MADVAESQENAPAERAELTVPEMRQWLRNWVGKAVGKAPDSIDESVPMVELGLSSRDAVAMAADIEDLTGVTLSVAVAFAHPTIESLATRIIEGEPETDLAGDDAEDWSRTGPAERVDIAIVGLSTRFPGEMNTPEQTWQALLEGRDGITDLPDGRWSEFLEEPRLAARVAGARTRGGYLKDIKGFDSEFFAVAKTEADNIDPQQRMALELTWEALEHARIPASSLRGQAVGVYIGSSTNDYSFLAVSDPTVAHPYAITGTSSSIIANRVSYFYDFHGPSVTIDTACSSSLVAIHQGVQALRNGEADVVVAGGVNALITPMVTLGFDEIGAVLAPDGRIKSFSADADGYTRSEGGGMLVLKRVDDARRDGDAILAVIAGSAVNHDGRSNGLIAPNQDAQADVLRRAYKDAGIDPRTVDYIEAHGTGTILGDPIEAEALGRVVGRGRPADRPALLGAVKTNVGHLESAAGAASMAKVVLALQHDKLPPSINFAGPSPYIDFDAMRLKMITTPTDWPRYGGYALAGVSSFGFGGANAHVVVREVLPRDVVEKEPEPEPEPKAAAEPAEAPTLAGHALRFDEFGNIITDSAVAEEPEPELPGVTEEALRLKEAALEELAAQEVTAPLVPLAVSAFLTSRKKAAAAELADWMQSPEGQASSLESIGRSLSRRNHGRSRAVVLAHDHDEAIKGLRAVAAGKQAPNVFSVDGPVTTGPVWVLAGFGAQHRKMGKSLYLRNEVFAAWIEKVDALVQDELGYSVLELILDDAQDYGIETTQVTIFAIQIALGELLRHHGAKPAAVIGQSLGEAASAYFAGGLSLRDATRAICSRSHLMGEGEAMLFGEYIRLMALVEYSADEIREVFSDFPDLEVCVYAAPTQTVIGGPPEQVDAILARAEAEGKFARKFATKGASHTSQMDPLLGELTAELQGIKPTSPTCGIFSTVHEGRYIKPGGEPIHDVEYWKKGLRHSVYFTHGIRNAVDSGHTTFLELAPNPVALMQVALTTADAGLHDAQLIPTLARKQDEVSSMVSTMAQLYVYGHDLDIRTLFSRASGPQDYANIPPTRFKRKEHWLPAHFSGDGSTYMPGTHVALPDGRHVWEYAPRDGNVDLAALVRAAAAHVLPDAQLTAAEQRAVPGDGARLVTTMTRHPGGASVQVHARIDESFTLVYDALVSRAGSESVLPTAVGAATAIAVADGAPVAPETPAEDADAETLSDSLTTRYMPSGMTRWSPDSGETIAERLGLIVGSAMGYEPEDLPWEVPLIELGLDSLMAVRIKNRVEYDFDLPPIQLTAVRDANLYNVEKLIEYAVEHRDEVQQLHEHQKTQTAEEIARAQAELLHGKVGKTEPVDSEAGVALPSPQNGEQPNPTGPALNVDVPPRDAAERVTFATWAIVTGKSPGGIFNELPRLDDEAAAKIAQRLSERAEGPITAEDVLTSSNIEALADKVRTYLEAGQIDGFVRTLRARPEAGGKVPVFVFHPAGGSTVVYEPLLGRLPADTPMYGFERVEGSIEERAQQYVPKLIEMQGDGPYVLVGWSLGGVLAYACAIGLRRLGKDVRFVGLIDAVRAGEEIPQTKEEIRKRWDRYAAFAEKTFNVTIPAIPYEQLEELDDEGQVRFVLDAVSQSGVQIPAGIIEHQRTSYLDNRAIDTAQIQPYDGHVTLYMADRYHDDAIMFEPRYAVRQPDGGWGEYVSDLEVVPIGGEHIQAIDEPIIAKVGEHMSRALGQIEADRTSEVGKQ
UniProt P9WPC5, whole entry: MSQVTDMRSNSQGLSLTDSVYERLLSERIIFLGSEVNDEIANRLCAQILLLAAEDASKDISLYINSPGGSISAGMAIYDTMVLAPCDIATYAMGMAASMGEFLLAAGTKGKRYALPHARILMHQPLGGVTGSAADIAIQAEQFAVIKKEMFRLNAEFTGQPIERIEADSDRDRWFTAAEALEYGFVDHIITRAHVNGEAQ
UniProt P9WPC3, whole entry partner: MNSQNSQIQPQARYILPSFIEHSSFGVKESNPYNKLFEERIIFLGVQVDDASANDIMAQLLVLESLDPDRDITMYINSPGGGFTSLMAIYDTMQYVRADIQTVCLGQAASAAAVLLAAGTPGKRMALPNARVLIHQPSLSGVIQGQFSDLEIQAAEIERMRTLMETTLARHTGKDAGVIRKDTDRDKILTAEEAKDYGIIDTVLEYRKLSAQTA

Each number is a percent effect as filed. The controls that fix the scale are not given in the record; negative values are as filed. The compounds are a random part of those screened. A dash means the value is not listed here; it may have been measured.

Leishmania in macrophages: 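Cell assay of Leishmania donovani living inside macrophages; the read-out is not stated. Tested at 30 µM. The record gives no direction; compounds that gave an IC50 in retests scored well above the rest, so higher reads as stronger inhibition. Of about 69,000 compounds tested this way, about 1,000 (1.5%) reached 50% or more in at least one test.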
Pks13 thioesterase: 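Polyketide synthase Pks13, Mycobacterium tuberculosis (UniProt I6X8D2). Enzyme assay of the thioesterase domain of polyketide synthase 13; the read-out is not stated. Tested at 30 µM. Higher reads as stronger inhibition (inferred from which compounds were picked for retests). Size under these conditions: about 67,000 compounds, about 300 of them at 50% or above in at least one test.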
ClpP1P2: 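ClpP1P2, Mycobacterium tuberculosis (UniProt P9WPC5 and UniProt P9WPC3). Protease assay of ClpP1P2, read by the AMC dye that it sets free. Compounds at 50 µM. Direction is inferred from only a few compounds that gave an IC50; most scored high, so higher reads as stronger inhibition. Most other retested compounds had strongly negative values. Size under these conditions: about 69,000 compounds, about 10 of them at 50% or above in at least one test.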
T. brucei: 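Whole-parasite assay of Trypanosoma brucei over 72 hours; the read-out is not stated. Compounds at 30 µM. The record gives no direction; compounds that gave an IC50 in retests scored well above the rest, so higher reads as stronger inhibition. Values scatter widely below zero; nearly all retest evidence comes from the higher of the two concentrations used. Of about 64,000 compounds tested this way, about 940 (1.5%) reached 50% or more in at least one test.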

| Compound | Leishmania in macrophages | Pks13 thioesterase | ClpP1P2 | T. brucei |
|---|---|---|---|---|
| `Cc1nc2cc(C3CCN(Cc4ccccc4F)C3)nn2c(O)c1C` (centres undefined) | -20.91 | -1.155 | -3.722 | 14.24 |
| `Cc1nnc2ccc(OCCNS(=O)(=O)c3cccs3)nn12` | 13.99 | -3.734 | 0.103 | -18.58 |
| `O=C(c1cccc(N2CCCC2=O)c1)N1CCCC(n2cncn2)C1` (centres undefined) | -11.82 | 25.26 | 6.044 | 4.661 |
| `CN(CCOCC1CC1)C(=O)Nc1ccc(C#N)c(Cl)c1` | 12.71 | -9.616 | -10.94 | -6.64 |
| `CCOC(=O)c1nc(CN2CCC(NC(=O)C(C)C)CC2)cs1` | 27.38 | -7.323 | 9.113 | -69.72 |
| `COCc1noc(Cn2c(C3CC3)nc3ccccc32)n1` | 3.887 | -10.86 | -3.926 | -26.73 |
| `[H][C@]12CC[C@]([H])(CN(Cc3coc(C)n3)C1)N(CC=C(C)C)C2` | 5.414 | - | - | -21.82 |
| `O=C(O)c1cc(S(=O)(=O)Nc2cnn(C3CCOCC3)c2)ccc1F` | -34.9 | -0.7049 | -3.799 | -3.686 |
| `CCS(=O)(=O)N1CC[C@@H]2[C@H](CC1)N(CC(C)C)CCS2(=O)=O` | - | - | 3.136 | - |
| `CC(NC(=O)CSCC#N)c1ccc(Cl)cc1` (centres undefined) | -15.19 | -5.652 | -4.58 | -22.13 |
| `[H][C@@]12CN(Cc3ccc(F)c(F)c3)C[C@]1([H])OCC(=O)N2` | 13.71 | - | - | -5.584 |
| `COCC(=O)N1CCC2(CC1)CC(N1CCOCC1)c1ccc(C)cc12` (centres undefined) | 29.24 | -10.06 | 3.733 | -16.2 |
| `COCCNC(=O)c1cc(C2CC2)nc2onc(C3CCNC3)c12` (centres undefined) | 6.947 | -2.548 | -17.45 | - |
| `CC(C)c1nn(C)c(N(C)C)c1CNCc1ccc(N(C)C)nc1` | 41.03 | -7.776 | -29.21 | 10.14 |
| `CCc1nc(CN(C)C2CCN(Cc3nc(C4CC4)no3)C2)no1` (centres undefined) | -83.53 | 4.26 | 14.31 | - |
| `Cc1cc(C(=O)NCC2(N(C)C)CCCC2)c(C)n1-c1cccnc1` | -0.6663 | -6.624 | 7.098 | -41.46 |
| `COCC1COCCC12CCN(Cc1nccs1)CC2` (centres undefined) | - | -0.4725 | 8.377 | - |
| `CCn1nc(C)c2nc(C(C)C)nc(N3CCCC3)c21` | -101.9 | -0.1353 | 17.89 | - |
| `CC(=O)N1CCN(C(=O)Nc2ccc(Cl)cc2)[C@H]2CS(=O)(=O)C[C@H]21` | - | -2.197 | 1.541 | - |
| `Cn1cc(C(O)CNC(=O)c2sccc2OC(F)F)cn1` (centres undefined) | -3.609 | -16.6 | 9.309 | -26.25 |
| `Cn1ccnc1CN1CCN(CC(=O)NCc2cccs2)CC1` | 21.43 | -16.69 | -10.66 | -20.07 |
| `O=C(Cc1cccc(F)c1)NCCNCc1cccnc1` | 14.91 | -18.51 | 6.618 | -20.12 |
| `CCN1C(=O)CCC12CCCN(Cc1nccs1)C2` (centres undefined) | - | - | -1.023 | - |
| `CCOc1c(F)cccc1C(=O)N(C)CCn1cccn1` | -6.188 | -21.29 | -3.41 | -8.619 |
| `CO[C@@H]1CCN(c2ncc(F)cn2)[C@@H]2CN(CC3CC3)C[C@@H]21` | - | -32.14 | 3.142 | - |
| `O=C(c1ccco1)N1CCCC1C1CCN(Cc2ccccc2)CC1` (centres undefined) | 13.85 | -33.44 | 2.014 | 44.83 |
| `CCN(CCC1CCN(C(=O)NCc2nncn2CC)CC1)CC1CC1` | 5.116 | 2.756 | 18.95 | -14.83 |
| `O=C(O)C(F)(F)F.[H][C@]12CCN(S(=O)(=O)c3cccs3)C[C@@]1([H])OCCN(C(C)C)C2` | 3.645 | - | - | -39.91 |
| `COc1c(F)cc(NC(=O)N2CCC(CSC)C2)cc1F` (centres undefined) | -15.22 | -9.35 | -4.535 | -34.88 |
| `CN1CCN(Cc2nnc(C3CCN(C(CO)CO)CC3)n2C)CC1` | -36.06 | 2.79 | 2.173 | -26.27 |
| `Cc1c[nH]c(CN(C)C(C(=O)O)c2c(F)cccc2OC(C)C)n1` (centres undefined) | 12.35 | 5.786 | -10.12 | -42.07 |
| `CCc1ccc(C(=O)N2CCN(CC(O)CC)CC2)o1` (centres undefined) | -16.32 | -28.61 | 17.92 | -47.21 |
| `Cc1nc(-c2ccc(F)c(F)c2)cc(C2CCNCC2)n1.Cl` | 47.49 | - | - | 101.1 |
| `Cc1nccn1C1CCCN(C(=O)c2ccnc(-n3ccnc3)c2)C1` (centres undefined) | 7.593 | -29.18 | 26.91 | -16.9 |
| `O=C(c1coc(COc2ccccc2F)n1)N1CCC[C@H]1CO` | 29.16 | -6.651 | -10.95 | -5.625 |
| `Cn1ccnc1CN1CCC2(CC1)Cc1ccccc1CNC2=O.O=C(O)C(F)(F)F` | 27.79 | - | - | -47.04 |
| `Cc1ccc(-n2cc(S(=O)(=O)Nc3cccc(C(=O)O)c3C)cn2)cc1` | -9.502 | -7.149 | -3.354 | -9.679 |
| `CC(C)(NS(C)(=O)=O)c1nc(-c2ccc(F)c(F)c2)no1` | -27.46 | 0.9843 | -5.099 | -7.902 |
| `CC(=O)c1ccc(OCC(=O)c2cccn2C)cc1` | -10.42 | 28.92 | 17.5 | -38.71 |
| `CCc1nnc(CNC(=O)CCC2CCCCN2C)s1` (centres undefined) | 19.87 | 12.23 | 9.067 | -23.25 |
| `Cc1ccsc1C(=O)N(C)Cc1ccncc1` | 21.63 | -5.462 | -17.16 | 8.963 |
| `COCC(=O)Nc1cnc(N2CCN(c3ccccc3)CC2)nc1` | 24.82 | -19.95 | -12.7 | -12.79 |
| `O=C(CN1CCCCCC1=O)NCC1CCN(c2ccccc2)C1` (centres undefined) | 0 | -45.01 | 2.886 | -8.489 |
| `O=C(Cc1cccs1)N1CCC2(CCCN(CC3CCOCC3)C2)C1` (centres undefined) | 12.94 | -23.46 | -0.9996 | -166.6 |
| `[H][C@@]12CCCO[C@]1([H])[C@H](OCC1CCCC1)CN2C(=O)c1ccnnc1` | 16.79 | - | - | -24.57 |
| `CCOC1CC2(CCN(Cc3cccn3C)CC2)C1.O=C(O)C(F)(F)F` | 47.91 | - | - | -74.3 |
| `CC(C)NC(=O)C1CN(C(=O)c2ccccc2)CC12CCOCC2` (centres undefined) | 14.29 | -11.58 | -4.137 | 21.83 |
| `Cn1cc(Br)c(=O)c(NS(=O)(=O)c2ccc(F)cc2)c1` | 0.1575 | -10.84 | -12.53 | 8.743 |
| `NC1(C(=O)NCC2CCCN(Cc3cccc4nonc34)C2)CCC1` (centres undefined) | 9.354 | - | -4.593 | 54.97 |
| `CC(C)(C)C(=O)NCCc1cc2nc(-c3ccncc3)ccn2n1` | 31.06 | -10.5 | 7.099 | 17.23 |
| `CC(C)n1ncc2c1NC(=O)CSC2C(C)(C)C` (centres undefined) | 18.5 | -8.49 | 6.938 | 37.74 |
| `CC(C)(C)CN1CCC(c2nnc(Cn3ccnc3)n2C2CC2)CC1` | 22.39 | -32.02 | 0.2445 | -18.85 |
| `O=S(=O)(NCC1OCCc2cn(CC3CCOCC3)nc21)C1CC1` (centres undefined) | - | -19.28 | -3.415 | - |
| `Cc1ccc(Oc2ccc(NC(=O)NCC3CCOC3)cn2)cc1C` (centres undefined) | 31.51 | - | 6.93 | -18.37 |

Some entries from above, unchanged:

Cc1ccc(Oc2ccc(NC(=O)NCC3CCOC3)cn2)cc1C (centres undefined) gave Leishmania in macrophages: 31.51%; ClpP1P2: 6.93%; T. brucei: -18.37%.
CC(C)n1ncc2c1NC(=O)CSC2C(C)(C)C (centres undefined) gave Leishmania in macrophages: 18.5%; Pks13 thioesterase: -8.49%; ClpP1P2: 6.938%; T. brucei: 37.74%.
CCc1ccc(C(=O)N2CCN(CC(O)CC)CC2)o1 (centres undefined) gave Leishmania in macrophages: -16.32%; Pks13 thioesterase: -28.61%; ClpP1P2: 17.92%; T. brucei: -47.21%.
CCOC(=O)c1nc(CN2CCC(NC(=O)C(C)C)CC2)cs1 gave Leishmania in macrophages: 27.38%; Pks13 thioesterase: -7.323%; ClpP1P2: 9.113%; T. brucei: -69.72%.
Cn1ccnc1CN1CCC2(CC1)Cc1ccccc1CNC2=O.O=C(O)C(F)(F)F gave Leishmania in macrophages: 27.79%; T. brucei: -47.04%.
COCCNC(=O)c1cc(C2CC2)nc2onc(C3CCNC3)c12 (centres undefined) gave Leishmania in macrophages: 6.947%; Pks13 thioesterase: -2.548%; ClpP1P2: -17.45%.

Source: ChEMBL document CHEMBL3988442, “University of Dundee, Small-Polar-MMV Screening Library” (2021).